Results on twelve substances are retold here after US6013764 (dated 2000).

The data set in a line: general procedure: solution-phase peptide synthesis; DIC/HOBt; HBTU/HOBt; HBTU/HOOBt; DIC/HOOBt. To be noted: for crude HPLC purity / final HPLC purity: HPLC area %.
Where [1] appears, read: late stage modification step, TFA salt.

The star is where a group is joined. Cbz = O=C(OCc1ccccc1)*; Boc = CC(C)(C)OC(=O)*; OBn = c1ccc(CO*)cc1

Regarding H-Leu-Leu-Lys(Z)-Leu-Leu-OMe.cndot.HCl, where the note is “late stage modification step”, the “crude HPLC purity” value is 99.2%.
Turning to “H-LLK(Z)LLLLK(Z)LLLLK(Z)-LLLLK(Z)-OBzl.cndot.TFA”, under setting [1], the “crude HPLC purity” value came to 88.2%.
“H-LLK(Z)LLLLK(Z)-LLLLK(Z)-OBzl.cndot.HCl”: the step yield (late stage modification step, HCl salt) was 95%.
Consider (Lys-Leu4)4 -Lys, for which the “crude HPLC purity” value was 81.8% (late stage modification step, run 1) and 80.5% (late stage modification step, run 2).
Turning to “Z-K(Z)LLLLK(Z)LLLLK(Z)LLLLK(Z)-LLLLK(Z)-OBzl”, under “coupling step”, the step yield is 92% and the “final HPLC purity” value came to 90%.
On to Boc-K(Cbz)LLLLK(Cbz)LL-OMe, for which the “crude HPLC purity” value (coupling step) turned out to be 94%.
For Boc-K(Cbz)LLLLK(Cbz)LL-OH, under “late stage modification step”, the step yield is 98% and the “crude HPLC purity” value turned out to be 91.4%.
Consider Boc-(Lys(Z)-Leu4)4 Lys(Z)-OBzl, for which the “crude HPLC purity” value (coupling step) is listed as 92%.
“Boc-LLK(Cbz)LLLLK(Cbz)LLLLK(Cbz)LLLLK(Cbz)-OBn” yielded a step yield (coupling step) of 89%.
On to AC-D-Nal-D-pCal-D-3-Pal-L-Ser(OH)-OH, for which, under “late stage modification step”, the “final HPLC purity” value is 95%.
Consider Boc-LL-K(Z)LLLLK(Z)-LLLLK(Z)-OBzl, for which the “final HPLC purity” value (coupling step) came out at 93.0%.
Regarding H-LLK(Z)-LLLLK(Z)-OBzl.cndot.TFA, the “crude HPLC purity” value under setting [1] is reported as 97%.
